Source: US20240374624A1, “NOVEL USE OF AT LEAST A HUMAN MILK OLIGOSACCHARIDE” (DSM IP ASSETS B.V., priority 2021, published 2024)
Some entries share one result that the patent states for a list of compounds. For at least one compound, name, drawing or mass did not settle the structure.

Tested on: C. acnes (ATCC reference 11827)
Assay: Cutibacterium acnes Time-Kill Assay
Format: cell-based
Conditions: summary of the time-kill study; negative value = growth
Experimental: Cutibacterium acnes Time-Kill Assay:
Seven different HMOs were screened for their potential anti-microbial activities against C. acnes (ATCC reference 11827). The action of ingredients and combinations thereof is assessed through a miniaturized method performed in liquid media in 96 deepwell plates format. The inhibition of the growth of C. acnes is compared to the same strain growth in corresponding optimal media.
The different ingredients are mixed at two different concentrations in growth medium (final volume 2 mL) in deepwell plates (n=3 for each concentration).
Analysis controls are prepared and used identically to samples: • A growth control of C. acnes in the corresponding culture medium; • A […] consisting of Phenoxyethanol prepared at 0.5% (v/v) directly in the culture medium.
Then, samples are contaminated with C. acnes, inoculum at final concentration of 3.7×10^5 CFU/mL, and incubated at 37° C.±2.5° C. during 24 h. At each defined timepoint (i.e. 30 min, 2 h, 4 h, 16 h and 24 h), a pick-up of the contaminated samples is performed (20 L) after gentle agitation.
To perform the counting, aliquots of the contaminated samples are serially diluted (decimal dilutions) in culture medium in 96-well plates with triphenyltetrazolium and incubated at 37° C.±2.5° C. during 48 h. […]

Row | Molecule | log-step reduction (summary range) [log-step]
1 | 3-fucosyllactose [3FL (Ref)] | −0.4 to −0.5
2 | CC(=O)N[C@H]1[C@H](O[C@H]2[C@@H](O)[C@@H](CO)O[C@@H](O[C@H]3[C@H](O)[C@@H](O)C(O)O[C@@H]3CO)[C@@H]2O)O[C@H](CO)[C@@H](O[C@@H]2O[C@H](CO)[C@H](O)[C@H](O)[C@H]2O)[C@@H]1O (mixture of isomers) [LNnT (Ref), lacto-N-neotetraose] | −0.4 to −0.5
